# Assay results from the supplement of paper PMC7830784.
# Where a name gives a salt, the structure may show the parent alone. The list shows a part of the results. Repeats in this data set agree poorly, so a single value says little.
# Test system: Brugia pahangi adult female
# Experiment: motility inhibition on day 3 relative to DMSO vehicle; higher = more active
# Details: 10 µM; 3 days
row,SMILES,motility inhibition on day 3 [%]
1,NC(=O)OCC(COC(N)=O)c1ccccc1 [felbamate],21.3
2,Cc1ccnc(NS(=O)(=O)c2ccc(N)cc2)n1 [sulfamerazine],19.1
3,COc1ccc(C[C@H](N)C(=O)N[C@H]2[C@@H](O)[C@H](n3cnc4c(N(C)C)ncnc43)O[C@@H]2CO)cc1 [puromycin hydrochloride],16.7
4,CCCCC/C=C/CCC(=O)N[C@H]1[C@H](Oc2c3cc4cc2Oc2ccc(cc2Cl)[C@@H](O[C@@H]2O[C@H](CO)[C@@H](O)[C@H](O)[C@H]2NC(C)=O)[C@@H]2NC(=O)[C@H](NC(=O)[C@@H]4NC(=O)[C@H]4NC(=O)C(Cc5ccc(c(Cl)c5)O3)NC(=O)[C@H](N)c3ccc(O)c(c3)Oc3cc(O)cc4c3)c3ccc(O)c(c3)-c3c(OC4O[C@H](CO)[C@@H](O)[C@H](O)[C@@H]4O)cc(O)cc3[C@@H](C(=O)O)NC2=O)O[C@H](CO)[C@@H](O)[C@@H]1O (stereo partly specified) [teicoplanin [a(2-1) shown]],< 0
5,[O-][n+]1cccc(CO)c1 [mepiroxol],2.38
6,CNC[C@H](O)[C@@H](O)[C@H](O)[C@H](O)CO [meglumine],2.78
7,Nc1ccc(S(=O)(=O)Nc2cnc3ccccc3n2)cc1 [sulfaquinoxaline sodium],1.48
8,NCCCC(O)(P(=O)(O)O)P(=O)(O)O [alendronate sodium],9.25
9,COC(=O)N[C@H](C(=O)N[C@@H](Cc1ccccc1)[C@@H](O)CN(Cc1ccc(-c2ccccn2)cc1)NC(=O)[C@@H](NC(=O)OC)C(C)(C)C)C(C)(C)C [Atazanavir],14
10,CCCCNc1cc(C(=O)O)cc(S(N)(=O)=O)c1Oc1ccccc1 [bumetanide],17.2
11,C[C@H](Cn1cnc2c(N)ncnc21)OCP(=O)(O)O [tenofovir],47.4
12,CC1(C)S[C@@H]2[C@H](N3C(=O)C(c4ccccc4)NC3(C)C)C(=O)N2[C@H]1C(=O)O (stereo partly specified),1.8
13,CC(C)n1c(/C=C/C(O)CC(O)CC(=O)O)c(-c2ccc(F)cc2)c2ccccc21 (stereo unspecified) [fluvastatin],0.0456
14,O=c1oc2cc(O)ccc2s1 [thioxolone],16.1
15,CC1/C=C/C=C/C=C/C=C/C=C/C=C/C=C/C(OC2O[C@H](C)[C@@H](O)[C@H](N)[C@@H]2O)CC(O)C(C(=O)O)C(O)CC(=O)CC(O)CC(O)CC(O)CC(=O)CCCC(=O)CC(=O)OC1C(C)CC(C)C(O)CC(=O)c1ccc(N)cc1 (stereo partly specified) [candicidin],8.15
16,C[C@@H]1C[C@H]2[C@@H]3CCC4=CC(=O)C=C[C@]4(C)[C@@]3(Cl)[C@@H](O)C[C@]2(C)[C@@]1(OC(=O)c1ccco1)C(=O)CCl [mometasone furoate],< 0
17,O=C(O)[C@H](CC(=O)N1C[C@H]2CCCC[C@H]2C1)Cc1ccccc1 [Mitiglinide calcium],25.9
18,O=C(O)c1cc(/N=N/c2ccc(S(=O)(=O)Nc3ccccn3)cc2)ccc1O [sulfasalazine],< 0
19,CN/C(=N\CCSCc1nc[nH]c1C)NC#N [Cimetidine],2.05
20,C/C(=C\C(=O)OCCCCCCCCC(=O)O)C[C@@H]1OC[C@H](C[C@@H]2O[C@H]2[C@@H](C)[C@H](C)O)[C@@H](O)[C@H]1O [mupirocin],19.5
21,C[C@@H](O[C@H]1OCCN(Cc2n[nH]c(=O)[nH]2)[C@H]1c1ccc(F)cc1)c1cc(C(F)(F)F)cc(C(F)(F)F)c1 [Aprepitant],5.35
22,Oc1cccc(O)c1 [resorcinol],< 0
23,CC(=O)N(c1onc(C)c1C)S(=O)(=O)c1ccc(N)cc1 [sulfisoxazole acetyl],7.89
24,Cc1cc(O)cc(C)c1Cl [chloroxylenol],4.07

# Looked up by compound from the list above, 2 records:
row,SMILES,motility inhibition on day 3 [%]
4,CCCCC/C=C/CCC(=O)N[C@H]1[C@H](Oc2c3cc4cc2Oc2ccc(cc2Cl)[C@@H](O[C@@H]2O[C@H](CO)[C@@H](O)[C@H](O)[C@H]2NC(C)=O)[C@@H]2NC(=O)[C@H](NC(=O)[C@@H]4NC(=O)[C@H]4NC(=O)C(Cc5ccc(c(Cl)c5)O3)NC(=O)[C@H](N)c3ccc(O)c(c3)Oc3cc(O)cc4c3)c3ccc(O)c(c3)-c3c(OC4O[C@H](CO)[C@@H](O)[C@H](O)[C@@H]4O)cc(O)cc3[C@@H](C(=O)O)NC2=O)O[C@H](CO)[C@@H](O)[C@@H]1O (stereo partly specified) [teicoplanin [a(2-1) shown]],< 0
6,CNC[C@H](O)[C@@H](O)[C@H](O)[C@H](O)CO [meglumine],2.78

# Remaining list, next part.

row,SMILES,motility inhibition on day 3 [%]
1,Cc1cn(-c2cc(NC(=O)c3ccc(C)c(Nc4nccc(-c5cccnc5)n4)c3)cc(C(F)(F)F)c2)cn1 [nilotinib],6.86
2,CC(N)CCCC(C)(C)O (stereo unspecified) [heptaminol hydrochloride],30.8
3,CC(C)OC(=O)C(C)(C)Oc1ccc(C(=O)c2ccc(Cl)cc2)cc1 [fenofibrate],13.4
4,Cc1cc2c(s1)Nc1ccccc1N=C2N1CCN(C)CC1 [olanzapine],7.54
5,CCOC(=S)SSC(=S)OCC [dixanthogen],5.04
6,CC=CC1=C(C(=O)O)N2C(=O)[C@@H](NC(=O)[C@H](N)c3ccc(O)cc3)[C@H]2SC1 [cefprozil],< 0
7,NC(=O)CC[C@H](N)C(=O)O [L-Glutamine],18
8,O=C1c2ccccc2C(=O)C1c1ccc(Br)cc1 [bromindione],10.5
9,CCCCC[C@H](O)/C=C/[C@H]1[C@H](O)CC(=O)[C@@H]1C/C=C\CCCC(=O)O [Dinoprostone],25.7
10,O=C(CCNNC(=O)c1ccncc1)NCc1ccccc1 [Nialamide],< 0
11,Cc1nc2ccccn2c(=O)c1CCN1CCC(C(=O)c2ccc(F)cc2)CC1 [Pirenperone],30.1
12,CC(C)(C)CC(C)(C)c1cc(Cc2cc(C(C)(C)CC(C)(C)C)cc(-n3nc4ccccc4n3)c2O)c(O)c(-n2nc3ccccc3n2)c1 [bisoctrizole],17.8
13,NC(=O)c1cnccn1 [pyrazinamide],9.85
14,CC(=O)O[C@H]1C(=O)[C@@]2(C)[C@H]([C@H](OC(=O)c3ccccc3)[C@]3(O)C[C@H](OC(=O)[C@H](O)[C@@H](NC(=O)c4ccccc4)c4ccccc4)C(C)=C1C3(C)C)[C@]1(OC(C)=O)CO[C@@H]1C[C@@H]2O [Taxol],3.56
15,COc1cccc2c1C(=O)c1c(O)c3c(c(O)c1C2=O)C[C@@](O)(C(=O)CO)C[C@@H]3O[C@H]1C[C@H](N)[C@@H](O)[C@H](C)O1 [epirubicin hydrochloride],23.7
16,C/C=C/c1ccc(OC)cc1 [anethole],34
17,O[C@H]1[C@H](O)[C@@H](O)[C@H](O)[C@@H](O)[C@H]1O [inositol],35.3
18,CCCN(CCC)CCc1cccc2c1CC(=O)N2 [ropinirole hydrochloride],16.5
19,Nc1cc(N2CCCCC2)nc(N)[n+]1[O-] [Minoxidil],12.5
20,C[C@]12CCC(=O)C=C1[C@@H]1C[C@@H]1[C@H]1[C@@H]3[C@@H]4C[C@@H]4[C@@]4(CCC(=O)O4)[C@@]3(C)CC[C@@H]12 [drospirenone],2.3
21,CC1=C(/C=C/C(C)=C/C=C/C(C)=C/CO)C(C)(C)CCC1 [retinol],15.3
22,C/C=C(/C(=C/C)c1ccc(O)cc1)c1ccc(O)cc1 [dienestrol],8.74
23,Cc1ncc([N+](=O)[O-])n1CC(C)O (stereo unspecified) [secnidazole],4.33
24,O=C(O)c1ccccc1OP(=O)(O)O [fosfosal],18.5

row,SMILES,motility inhibition on day 3 [%]
1,CCC(NC(C)C)C(O)c1ccc(O)c2[nH]c(=O)ccc12 (stereo unspecified) [Procaterol HCl hemihydrate],9.29
2,O=C(O)c1cc(=O)[nH]c(=O)[nH]1 [orotic acid],9
3,O=c1n(CCCN2CCN(c3cccc(Cl)c3)CC2)nc2ccccn12 [Trazodone hydrochloride],5.52
4,CC(=O)NCCCCCC(=O)O [acexamic acid],< 0
5,CC1(C)S[C@@H]2[C@H](NC(=O)[C@H](N)c3ccccc3)C(=O)N2[C@H]1C(=O)O [ampicillin sodium],20.9
6,C=C[C@H]1CN2CC[C@H]1C[C@H]2[C@H](O)c1ccnc2ccc(OC)cc12 [quinine sulfate],22.5
7,c1ccc2c(CC3=NCCN3)cccc2c1 [naphazoline hydrochloride],14.1
8,CC(=O)OCC(=O)[C@@]12OC(C)(C)O[C@@H]1C[C@H]1[C@@H]3C[C@H](F)C4=CC(=O)C=C[C@]4(C)[C@@]3(F)[C@@H](O)C[C@@]12C [fluocinonide],8.83
9,CCN(CC)CC(=O)Nc1c(C)cccc1C [Lidocaine hydrochloride],28.9
10,CC(=O)CC(c1ccccc1)c1c(O)c2ccccc2oc1=O (stereo unspecified) [warfarin],3.32
11,O=C1NS(=O)(=O)c2ccccc21 [saccharin],57.1
12,CO[C@@H]1[C@@H](O[C@@H]2O[C@H](C)[C@@H](O[C@H]3C[C@@](C)(O)[C@@H](OC(=O)CC(C)C)[C@H](C)O3)[C@H](N(C)C)[C@H]2O)[C@@H](CC=O)C[C@@H](C)[C@@H](O)/C=C/C=C/C[C@@H](C)OC(=O)C[C@H]1OC(C)=O [Josamycin],< 0
13,O=c1oc2c(O)c(O)cc3c(=O)oc4c(O)c(O)cc1c4c23 [ellagic acid],2.42
14,COc1cccc2c1C(=O)c1c(O)c3c(c(O)c1C2=O)C[C@@](O)(C(C)=O)C[C@@H]3O[C@H]1C[C@H](N)[C@H](O)[C@H](C)O1 [daunorubicin],19.3
15,CC(=O)NS(=O)(=O)c1ccc(N)cc1 [sulfacetamide],< 0
16,Cc1cn([C@H]2C=C[C@@H](CO)O2)c(=O)[nH]c1=O [stavudine],< 0
17,OCc1ccccc1O[C@@H]1O[C@H](CO)[C@@H](O)[C@H](O)[C@H]1O [salicin],< 0
18,C=CC1=C(C(=O)O)N2C(=O)[C@@H](NC(=O)/C(=N\O)c3csc(N)n3)[C@H]2SC1 [cefdinir],27.8
19,CN1C(CCl)Nc2cc(Cl)c(S(N)(=O)=O)cc2S1(=O)=O (stereo unspecified) [methyclothiazide],6.75
20,NC(=O)CCCCC1CCSS1 (stereo unspecified) [lipoamide],< 0
21,C=C(C)[C@H]1CC=C(C)CC1 [d-limonene],30
22,NS(=O)(=O)c1cc2c(cc1C(F)(F)F)NCNS2(=O)=O [hydroflumethiazide],62.5
23,CC(O)Cn1cnc2c1c(=O)n(C)c(=O)n2C (stereo unspecified) [proxyphylline],< 0
